{
  "source": "patent US12648892B2",
  "about": "“Emergency eye wash” (Lebrun Labs LLC, priority 2024, dated 2026); further: key: GHS Category 1 (Chemicals that cause extreme and irreversible damage to the eye)",
  "origin": "cited, not measured here",
  "tested_on": "eye",
  "conditions": "eye damage classification; cited from earlier work",
  "data": [
    {"smiles": "CC(C)(C)c1ccc(O)cc1", "note": "[compound 19]", "values": [
      {"measurement": "in vivo GHS", "value": 1}
    ]}
  ]
}
